Results: PubChem BioAssay AID504834 (National Center for Advancing Translational Sciences (NCATS), 2011)
In all, about 320,000 compounds went through this assay and about 22,000 (6.9%) were called active. The inconclusive results got no clear call from the source; some entries with a clear call stand among them for comparison. The call rests on the fitted dose curve; in most records, active means well fitted inhibition curve with a large enough effect; inconclusive means small, poorly fitted or top-dose-only effect, or another doubt; inactive means no such curve, though single readings can be large or run the other way. Where the call is inconclusive, the potency comes from a doubtful curve fit.

experiment: Primary qHTS for delayed death inhibitors of the malarial parasite plastid, 96 hour incubation; details: P. falciparum luciferase reporter growth; series mostly up to 28.7 µM
Summary of the method: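 P. falciparum expressing integrated firefly luciferase grown in erythrocytes (2% hematocrit, 0.05% parasitemia final) with compounds for 96 hours at 37 C, 5% CO2. Growth inhibition read as loss of luminescence after adding luciferase detection reagent.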
Potency means the concentration at half of the fitted maximal effect.

Row | Compound | Potency
1 | S=C(NCc1ccccc1)Nc1cccc2cnccc12 | inactive
2 | O=c1[nH]c(Cc2ccc(F)cc2)nc2scc(-c3ccc(F)cc3)c12 | inconclusive: 18.5 µM [inhibitor, single point]
3 | CCCc1cc(=O)oc2c(C)c(OCC(=O)Nc3cccnc3)ccc12 | active: 2.33 µM
4 | COc1cc2nc(SCC(N)=O)n(CCC3=CCCCC3)c(=O)c2cc1OC | active: 13.1 µM
5 | COc1cc2c(cc1OC)C(C(=O)N(C)C1CCCCC1)C1CCCCN1C2=O (stereo not given) | inconclusive: 18.5 µM [inhibitor, single point]
6 | CC(C)c1nc(SCC(=O)c2c[nH]c3ccccc23)n[nH]1 | inconclusive: 13.1 µM [inhibitor, partial curve]
7 | Nc1nnc(SCC(=O)OCc2ccc(Cl)c(Cl)c2)s1 | inconclusive: 0.037 µM [inhibitor, full curve, poor fit]
8 | CCC(=O)Nc1ccc(Cl)c(NC(=S)NC(=O)c2ccco2)c1 | inconclusive: 0.262 µM [inhibitor, partial curve, poor fit]
9 | C=CCC1(C#N)C(=S)NC(C)=C(C(=O)OCC)C1c1ccccc1 (stereo not given) | inconclusive: 0.828 µM [inhibitor, full curve]
10 | O=C1C=C(c2ccc(F)c(Cl)c2)C[C@@H](c2ccc(F)cc2)C1 | inactive
11 | CC1CCN(c2ccc(NC(=S)NC(=O)c3ccco3)cc2)CC1 | inconclusive: 1.65 µM [inhibitor, partial curve]
12 | COc1cc(CNCCNC(=O)c2nonc2N)ccc1OCc1ccc(Cl)nc1 | inconclusive: 18.5 µM [inhibitor, single point]
13 | CCCCN(C(=O)C1CC(=O)N(Cc2ccc(C)cc2)C1)c1c(N)n(CC(C)C)c(=O)[nH]c1=O (stereo not given) | inactive
14 | CSc1ccccc1OCc1cc(C(=O)NCCC2CCCCO2)no1 (stereo not given) | inconclusive: 18.5 µM [inhibitor, single point]
15 | COC(OC)C12c3ccccc3C(c3ccccc31)C1C(=O)N(c3cccnc3)C(=O)C12 (stereo not given) | inconclusive: 0.0033 µM [inhibitor, full curve, poor fit]
16 | Cc1ccc(C(=O)NCCc2ccc(F)cc2)s1 | inconclusive: 2.33 µM [inhibitor, full curve]
17 | Cc1cc(NC(=O)CS(=O)(=O)c2cn(Cc3ccccc3Cl)c3ccccc23)no1 | active: 0.586 µM
18 | CCOC(=O)C1CCN(S(=O)(=O)c2ccc(Br)c(OCC)c2)CC1 | active: 4.65 µM
19 | C=CCn1c(O)c(N=NC(=O)CNC(=O)/C=C/c2ccc(OC)cc2)c2ccccc21 | inactive
20 | COc1cc(-c2nnc(SCC(=O)/C(C#N)=C(\C)N)o2)cc(OC)c1OC | active: 9.28 µM
21 | CCN(CC)c1ccc(NC(=O)Nc2cccc(C(C)=O)c2)cc1 | inconclusive: 0.828 µM [inhibitor, full curve]
22 | Cc1ccc(N(CC(=O)N/N=C/c2cccs2)S(C)(=O)=O)cc1Cl | inconclusive: 18.5 µM [inhibitor, single point]
23 | O=C(NCCCN1CCOCC1)c1ccc2c(c1)N(Cc1ccccc1)C(=O)c1ccccc1S2 | inconclusive: 13.1 µM [inhibitor, partial curve, poor fit]

Row | Compound | Potency
24 | COC(=O)c1sccc1NS(=O)(=O)c1ccccc1[N+](=O)[O-] | inactive
25 | COc1ccc2[nH]c3nc(SCC(=O)NC4CC4)nnc3c2c1 | inconclusive: 8.28 µM [inhibitor, partial curve]
26 | CCn1nccc1C(=O)Nc1ccc(Cl)c(Cl)c1 | inconclusive: 3.29 µM [inhibitor, full curve, poor fit]
27 | O=C(O)c1ccc2cccc(Cl)c2c1O | inconclusive: 13.1 µM [inhibitor, single point]
28 | c1nnc(NC2=NCCC2)s1 | inactive
29 | COc1ccc(-c2ncc3ccccn23)cc1OC | inactive
30 | COc1ccccc1NC(=O)Nc1nc(CC(=O)Nc2ccc(N(C)C)cc2)cs1 | inconclusive: 18.5 µM [inhibitor, single point]
31 | CCOc1ccc(N=Nc2c(C)noc2C)cc1 | inconclusive: 9.28 µM [inhibitor, single point]
32 | Cc1cc(Oc2nc3ccccn3c(=O)c2/C=C(\C#N)C(=O)NC2CCS(=O)(=O)C2)ccc1Cl (stereo not given) | inconclusive: 0.329 µM [inhibitor, partial curve, poor fit]
33 | COc1cc(CNc2ccc3[nH]c(=O)[nH]c3c2)cc(Br)c1OCC(=O)NC(C)(C)C | inconclusive: 20.8 µM [inhibitor, partial curve, poor fit]
34 | NC(=O)c1cc(-c2ccncc2)nc2ccc(Cl)cc12 | inconclusive: 10.4 µM [inhibitor, single point]
35 | CCCN1Cc2cccc(C(=O)Nc3ccc4c(c3)OCO4)c2C1=O | inactive
36 | Cc1ccccc1C(O)c1ccccn1 (stereo not given) | inconclusive: 1.31 µM [inhibitor, partial curve, poor fit]
37 | CCC(C)(C)NC(=O)C(c1ccc(C)cc1)N(Cc1cccs1)C(=O)c1ccc2c(c1)OCCO2 (stereo not given) | active: 11.7 µM
38 | COc1cc(C(=O)Nc2cnc(NC(=O)C(C)C)cc2C)cc(OC)c1OC | inconclusive: 13.1 µM [inhibitor, single point]
39 | COc1ccc2c(c1)CC/C2=N\OC(=O)c1ccccc1C | inconclusive: 4.65 µM [inhibitor, partial curve, poor fit]
40 | Cc1ccc(-n2nc(C(=O)O)c(C)c(C#N)c2=O)cc1Cl | inconclusive: 3.7 µM [inhibitor, full curve]
41 | COc1ccc(N(CC(=O)O)S(=O)(=O)c2cccnc2)cc1 | inactive
42 | CCOc1ccccc1N1CCN(CC(=O)NC(C)c2ccccc2)CC1 (stereo not given) | inconclusive: 13.1 µM [inhibitor, single point]
43 | Cc1ccnc2c(N3C(=O)C4C5C=CC(C5)C4(C)C3=O)cccc12 (stereo not given) | inconclusive: 0.0329 µM [inhibitor, full curve, poor fit]
44 | C=CCn1c(CSc2nc3ccccc3s2)nnc1SCC(=O)OCC | inconclusive: 18.5 µM [inhibitor, single point]
45 | Cc1ccc(Nc2nnc(SC(C)C(=O)NC3CC3)s2)cc1 (stereo not given) | active: 14.7 µM

2 of the compounds above, as labelled records:
S=C(NCc1ccccc1)Nc1cccc2cnccc12
  Potency: inactive
O=c1[nH]c(Cc2ccc(F)cc2)nc2scc(-c3ccc(F)cc3)c12
  Potency: inconclusive: 18.5 µM [inhibitor, single point]
